Laboratory results from patent US20130143948A1, “MST1 AS A PROGNOSTIC BIOMARKER AND THERAPEUTIC TARGET IN HUMAN CANCER” (CEDARS-SINAI MEDICAL CENTER, priority 2010, published 2013).
At least one structure is not confirmed: it was looked up by name or label, or the drawing left a doubt.

Test system: C4-2/HA-MST1 cells
Test: Cell proliferation of C4-2/HA-MST1 cells with PI3K inhibitor
Type: cell-based
Conditions: LY294002 20 μM, Dox-induced MST1 expression, 24 hr

In the case of `O=c1cc(N2CCOCC2)oc2c(-c3ccccc3)cccc12` [LY294002], the “effect on cell growth” value is reported as “growth suppression”.
